Test results published in US12539304B2, “Combination of an anaplastic lymphoma kinase inhibitor and a cyclin dependent kinase inhibitor” (Pfizer Inc., priority 2020, dated 2026).
Some results were stated once for a whole list of compounds, not compound by compound.

Tested on: H3122 CrizoR 1-07 (G1269A) cells
Assay: Cell Titer-Glo cell viability assay, H3122 CrizoR 1-07 (G1269A)
Format: cell-based, human
Settings: FIG. 2A

SMILES: C[C@H]1Oc2cc(cnc2N)-c2c(nn(C)c2C#N)CN(C)C(=O)c2ccc(F)cc21 [lorlatinib, (10R)-7-amino-12-fluoro2,10,16-trimethyl-15-oxo-10,15,16,17-tetrahydro-2H-4,8-methenopyrazolo[4,3-h]]
- Increase of IC50 in comparison to the parental cells H3122: > 15 fold
